# Data taken from PubChem BioAssay AID504467 (National Center for Advancing Translational Sciences (NCATS), 2011).
# Screen size: about 330,000 compounds; about 7,700 (2.3%) were called active. The shares of active, inactive and inconclusive entries below differ from those in the screen. The call rests on the fitted dose curve; in most records, active means well fitted inhibition curve with a large enough effect; inconclusive means small, poorly fitted or top-dose-only effect, or effect the other way; inactive means flat fitted curve, though single readings scatter. A potency beside an inconclusive call is a rough fit, not a confirmed value.
# Assay: qHTS screen for small molecules that inhibit ELG1-dependent DNA repair in human embryonic kidney (HEK293T) cells expressing luciferase-tagged ELG1; further: nearly all actives have a fitted effect of over 55% in size
# Details: HEK293T ELG1-luciferase reporter, luminescence, 16 h, DNA damage induced by 5-fluorouridine; activity change, negative = inhibition: at 46.1 µM (top of the series)
# In short: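 Cells (2,000 per well) received 5-fluorouridine plus test compound or DMSO and were incubated 16 hr at 37 °C, 5% CO2. Luciferase activity was read by luminescence 30 min after ONE-Glo addition; signal suppression marked inhibition of damage-induced ELG1 function.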
# On the % scale 0 is the no-effect control and ±100 the full control effect; potency means the concentration at half of the fitted maximal effect.
Compound,Potency,"activity change, negative = inhibition"
O=C(Nc1ccccc1)N1CCn2c(nc3ccccc32)C1,"inconclusive: 16.4 µM [inhibitor, partial curve, poor fit]",
COc1ccc(Oc2ccc(/C=C/C(=O)c3cccc(OC)c3)cc2[N+](=O)[O-])cc1,"inconclusive: 29.1 µM [inhibitor, single point]",
CC(=O)Nc1cccc(NC(=O)COC(=O)CO/N=C(\C)c2ccc3c(c2)OCO3)c1,,inactive: 14.5%
O=C(OC1CCOC1=O)c1cc(-c2ccccc2)nc2ccccc12 (centres undefined),"inconclusive: 29.1 µM [activator, single point]",
COc1ccc(C(CNC(=O)CSc2ccc(Br)cc2)N2CCOCC2)cc1 (centres undefined),"inconclusive: 29.1 µM [activator, single point]",
Cc1cccc(OCc2nnc(SCC(=O)N3c4ccccc4CC3C)n2C)c1C (centres undefined),"inconclusive: 29.1 µM [inhibitor, single point]",
COc1cccc(C(=O)N2CCN(c3ncccn3)CC2)c1,"inconclusive: 0.116 µM [activator, full curve, poor fit]",
Cc1ccc2nc(CCc3ccc(N)cc3)[nH]c2c1,"inconclusive: 20.6 µM [activator, partial curve]",
Cc1cc2cc(CNC(=O)CC(C)C)ccc2n1C,,inactive: 16.5%
Cc1ccc(NC(=O)NCCN2CCN(C(=O)Nc3ccc(C)cc3)CC2)cc1,,inactive: 8.49%
CNC(=O)/C(C#N)=C/c1c(N2CCN(c3cccc(Cl)c3)CC2)nc2c(C)cccn2c1=O,active: 20.6 µM,
COc1cc(NC(=O)C2CCCN(S(=O)(=O)c3ccc4[nH]c(=O)ccc4c3)C2)cc(OC)c1 (centres undefined),"inconclusive: 29.1 µM [inhibitor, single point]",
COc1ccc(/C=C2\C(=O)N(Cc3ccc(F)cc3)CC(=O)N2Cc2ccccc2)cc1,"inconclusive: 6.51 µM [inhibitor, partial curve, poor fit]",
N#Cc1ccsc1NC(=O)CSc1nncs1,"inconclusive: 18.3 µM [activator, partial curve]",
O=C(COC(=O)c1ccc(CO)cc1)Nc1ccc(OC(F)F)cc1,,inactive: 0.994%
COc1ccc(CNC(=O)c2ccc3oc(C(C)C)nc3c2)cc1,"inconclusive: 10.3 µM [activator, partial curve]",
Cc1cc(CNC(=O)C2CCC(=O)N(Cc3cccc(C(F)(F)F)c3)C2)no1 (centres undefined),"inconclusive: 32.6 µM [activator, partial curve, poor fit]",
O=C(CN1CCN(S(=O)(=O)N2CCCCCC2)CC1)Nc1cc(Cl)ccc1Cl,"inconclusive: 6.51 µM [inhibitor, partial curve]",
Cc1ccc(NC(=S)c2ccccc2)cc1,"inconclusive: 11.6 µM [activator, partial curve]",
CCN(CC(=O)Nc1ccccc1C(=O)OC)S(=O)(=O)c1ccccc1,"inconclusive: 2.59 µM [inhibitor, partial curve, poor fit]",
CCc1ccccc1N1C(=O)CN(Cc2cc(OC)c(OC)c(OC)c2)C1=S,,inactive: -24.6%
C=CCN(CC=C)Cc1c(C)[nH]c2ccc(C(=O)OCC)cc2c1=O,,inactive: 4.25%
COC(=O)c1ccccc1NC(=S)NC(=O)c1ccc2ccccc2c1,"inconclusive: 18.4 µM [activator, single point]",

Compound,Potency,"activity change, negative = inhibition"
CC1CCN(c2c(NCc3ccc(C(=O)N4c5ccccc5CC4C)cc3)c(=O)c2=O)CC1 (centres undefined),"inconclusive: 23.1 µM [inhibitor, partial curve]",
COCCn1c(SCC(=O)Nc2ccc(Cl)cn2)nnc1-c1ccncc1,,inactive: -16.3%
Cc1cc(Nc2cccc(C)c2C)n2ncnc2n1,"inconclusive: 29.1 µM [activator, single point]",
COc1ccc(-c2c(-c3cc(OC)cc(OC)c3)n(C)c3ccc(-c4ccc(S(N)(=O)=O)cc4)cc23)cc1,"inconclusive: 16.4 µM [inhibitor, partial curve, poor fit]",
CCCCc1ccc(NC(=O)C(=O)NCCN2CCN(Cc3ccc([N+](=O)[O-])cc3)CC2)cc1,active: 3.26 µM,
Cc1nn(CC(=O)N2CCC(C(N)=O)CC2)c(=O)c2nn(-c3ccccc3)c(C)c12,"inconclusive: 20.6 µM [activator, single point]",
O=S(=O)(c1cnccc1N1CCN(CCO)CC1)N1CCCCC1,"inconclusive: 29.1 µM [activator, partial curve, poor fit]",
Nc1nnc(N)c2ccccc12,,inactive: 17.5%
Cc1cccc(N2CCN(C(=O)C3CCN(S(=O)(=O)N4CCOCC4)CC3)CC2C)c1 (centres undefined),"inconclusive: 25.9 µM [inhibitor, partial curve, poor fit]",
CC(=O)/C(N=Nc1nc2c([nH]1)c(=O)n(C)c(=O)n2C)=C(\C)O,"inconclusive: 4.11 µM [inhibitor, full curve]",
COc1ccc(C(=O)OCC(=O)c2ccc3c(c2)NC(=O)CO3)cc1S(=O)(=O)N1CCOCC1,,inactive: -10.6%
COc1ccc(C(=O)NC(=S)NNC(=O)c2ccc(NC(C)=O)cc2)cc1Br,"inconclusive: 29.1 µM [inhibitor, single point]",
CCn1c(SCC(=O)c2[nH]c(C)c(C(C)=O)c2C)nnc1-c1ccccc1,"inconclusive: 8.2 µM [inhibitor, partial curve]",
O=c1oc(-c2cccc(S(=O)(=O)N3CCOCC3)c2)nc2ccccc12,,inactive: 4.3%
COc1ccc(N2C(=O)CC(NNC(=O)c3cc(C)oc3C)C2=O)cc1 (centres undefined),,inactive: -8.51%
C#CC(CC)(CC)NC(=S)Nc1cccc(C(C)=O)c1,"inconclusive: 29.1 µM [inhibitor, single point]",
Cc1ccc(NC(=O)c2cc(C)n(-c3cccc(C)c3)c2C)cc1,"inconclusive: 1.03 µM [activator, full curve]",
COc1cccc(N(CC(=O)Nc2ccc3c(c2)OCO3)S(=O)(=O)c2ccccc2)c1,,inactive: -21.6%
COCCN=C1Sc2nc3ccc(C)cc3cc2CN1Cc1ccco1,"inconclusive: 23.1 µM [inhibitor, single point]",
O=C(C1=C[C@H](c2ccc(Br)cc2)C[C@H](OCCCCO)O1)N1CCOCC1,,inconclusive: 48.4% [activator]
C=CCn1c(SCc2c(C)noc2C)nc2cc(C(=O)O)ccc2c1=O,"inconclusive: 29.1 µM [activator, single point]",
O=C(NCc1ccccc1)c1ccc(N2CCC3(CC2)CC(c2ccccc2)=NO3)c([N+](=O)[O-])c1,"inconclusive: 18.3 µM [inhibitor, partial curve]",
Cc1onc(NC(=O)CSCC(=O)O)c1Br,"inconclusive: 6.51 µM [inhibitor, single point]",

# For convenience, part of the list above:
Compound,Potency,"activity change, negative = inhibition"
Cc1cc2cc(CNC(=O)CC(C)C)ccc2n1C,,inactive: 16.5%
Cc1ccc(NC(=O)NCCN2CCN(C(=O)Nc3ccc(C)cc3)CC2)cc1,,inactive: 8.49%

# (more compounds)

Compound,Potency,"activity change, negative = inhibition"
COc1ccc(NC(=S)NC23CC4CC(CC(C4)C2)C3)cc1OC,,inactive: 14%
O=C(CC(SCCO)c1ccc(F)cc1)c1ccco1 (centres undefined),,inactive: -15.5%
COc1cc(C(=O)NC(=S)Nc2ccccc2[N+](=O)[O-])cc(OC)c1OC,active: 6.51 µM,
Fc1cccc(CO/N=C/c2c(-c3ccccc3)nc3ccc(Cl)cn23)c1,,inactive: 1.65%
CCOC(=O)C1CCCN(C(=O)c2csc(-c3ccc4c(c3)CCO4)n2)C1 (centres undefined),"inconclusive: 23.1 µM [inhibitor, partial curve, poor fit]",
CCc1nc(OCCN(C)C)c2oc3ccccc3c2n1,"inconclusive: 29.1 µM [activator, single point]",
COCC(C)NC(C(=O)Nc1cccc(C(C)=O)c1)c1ccccc1 (centres undefined),,inactive: 6.35%
COc1ccc(N(C)S(=O)(=O)c2cccc(C(=O)NCC3CCCCC3)c2)cc1,"inconclusive: 29.1 µM [inhibitor, single point]",
O=C(CC1SC(N2CCCCC2)=NC1=O)Nc1cccc(C(=O)O)c1 (centres undefined),"inconclusive: 10.3 µM [activator, partial curve, poor fit]",
CC(=O)c1ccc(S(=O)(=O)N2CCN(CC(=O)Nc3ccccc3C(=O)NC3CC3)CC2)cc1,"inconclusive: 32.6 µM [inhibitor, single point]",
COc1ccc(C2c3cc(OC)c(OC)cc3CCN2C(=O)c2ccccc2Br)cc1OC (centres undefined),"inconclusive: 9.2 µM [inhibitor, partial curve]",
O=C(CC(c1ccco1)S(=O)(=O)c1ccccc1)c1ccccc1 (centres undefined),,inactive: 27.6%
COc1cc(C)ccc1OCCOc1ccccc1Cl,"inconclusive: 18.4 µM [activator, single point]",
Cc1ccc(CCC(=O)Nc2ccc(N(C)C)cc2)o1,,inactive: 5.76%
C=CCNC(=O)C(=O)N/N=C/c1ccco1,,inactive: 12.9%
COc1ccc(-c2nc3ncccn3c2Br)cc1,"inconclusive: 18.3 µM [activator, partial curve]",
CCCCn1cnc2sc(-c3ccccc3)cc2c1=O,"inconclusive: 7.94 µM [activator, partial curve]",
Cc1cc(C)cc(NS(=O)(=O)c2ccc3[nH]cc(C(=O)N4CCc5ccccc54)c(=O)c3c2)c1,,inactive: -23.2%
COc1cc(-c2cc(OC)c3c(C)oc(C)c3c(=O)c2)ccc1O,,inactive: 11.2%
CN(CC(=O)Nc1ccccc1C(F)(F)F)C(=O)c1cc(-c2cccs2)nn1-c1ccccc1,"inconclusive: 29.1 µM [inhibitor, single point]",
Cc1noc(C)c1C(=O)Nc1ccc(F)cc1,"inconclusive: 0.146 µM [inhibitor, full curve]",
O=C(CNCc1ccccc1Cl)Nc1cc(S(=O)(=O)N2CCOCC2)ccc1Cl,"inconclusive: 20.6 µM [inhibitor, single point]",
Fc1cccc(Cc2noc(CN3CCCN(C4Cc5ccccc5C4)CC3)n2)c1,"inconclusive: 32.6 µM [activator, single point]",
